In the supplement of paper PMC10849652:
Some of the results follow.

Sequences of proteins named here, by UniProt entry; tags and fusion partners are left off. A change or cut given only in a name is not applied to a line headed by its entry.
UniProt P49591: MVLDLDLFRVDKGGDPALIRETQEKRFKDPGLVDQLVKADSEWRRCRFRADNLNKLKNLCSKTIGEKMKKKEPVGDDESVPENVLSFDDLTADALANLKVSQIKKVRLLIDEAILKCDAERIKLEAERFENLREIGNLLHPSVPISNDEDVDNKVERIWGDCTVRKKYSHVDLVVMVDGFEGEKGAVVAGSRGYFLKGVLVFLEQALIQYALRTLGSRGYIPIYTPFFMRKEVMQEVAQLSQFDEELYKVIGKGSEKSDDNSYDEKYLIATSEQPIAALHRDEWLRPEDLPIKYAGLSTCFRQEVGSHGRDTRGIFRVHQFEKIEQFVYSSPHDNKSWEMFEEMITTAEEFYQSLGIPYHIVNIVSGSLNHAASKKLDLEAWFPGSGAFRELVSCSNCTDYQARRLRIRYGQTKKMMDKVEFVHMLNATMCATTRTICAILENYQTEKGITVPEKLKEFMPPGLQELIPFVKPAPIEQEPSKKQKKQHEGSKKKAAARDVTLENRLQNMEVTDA
UniProt Q9UQR0: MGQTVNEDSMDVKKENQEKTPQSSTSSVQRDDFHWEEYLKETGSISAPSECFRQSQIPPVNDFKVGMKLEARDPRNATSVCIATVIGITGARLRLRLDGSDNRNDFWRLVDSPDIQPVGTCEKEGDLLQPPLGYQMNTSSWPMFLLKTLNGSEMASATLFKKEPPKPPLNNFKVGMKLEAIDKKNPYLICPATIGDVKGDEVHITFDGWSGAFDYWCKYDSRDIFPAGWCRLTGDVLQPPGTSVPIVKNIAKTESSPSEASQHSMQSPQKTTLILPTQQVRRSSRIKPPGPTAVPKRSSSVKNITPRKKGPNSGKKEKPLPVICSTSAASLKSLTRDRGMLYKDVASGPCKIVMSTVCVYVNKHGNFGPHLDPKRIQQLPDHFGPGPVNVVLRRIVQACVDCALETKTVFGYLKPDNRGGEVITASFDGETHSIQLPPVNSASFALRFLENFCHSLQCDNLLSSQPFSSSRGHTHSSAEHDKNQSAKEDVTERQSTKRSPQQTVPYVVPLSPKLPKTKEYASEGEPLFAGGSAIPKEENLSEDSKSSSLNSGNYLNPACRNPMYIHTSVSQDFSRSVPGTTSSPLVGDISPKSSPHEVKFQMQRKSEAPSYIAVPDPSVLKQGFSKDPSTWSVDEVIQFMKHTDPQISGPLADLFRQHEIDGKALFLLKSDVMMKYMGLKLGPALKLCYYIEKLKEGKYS

How the values were obtained:
Experiment in all cases: log2 fold change, soluble protein after heating vs DMSO (PISA); higher = thermal stabilisation; K562 lysate, 10 uM; active = over 0.2 and 3.5 SD of the protein, either way, in both replicates (recomputed)
[1] = compound: C#Cc1cccc(Nc2ncnc3cc(OCCOC)c(OCCOC)cc23)c1 [erlotinib]
Method in brief: (§1)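 Values give the log-two fold change in thermal stability against solvent controls, from duplicates. Crude K562 extract at 1 mg/mL protein, made by dounce homogenisation in PBS pH 7.4 with 1 mM MgCl2, was treated with 10 μM compound for 30 min. After 3 min heating across 48°C-58°C, aliquots were pooled, adjusted to 0.5% NP-40 at 4°C and centrifuged at 21,000xg for 90 min. The supernatant was measured by TMTpro 16plex LC-MS/MS with channel sums equalised.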

[2] = compound: C/C(=N\NC(=O)C1=CC(=CC=C1)S(=O)(=O)N2CCOCC2)/C3=C(C=CC(=C3)Cl)O
Method in brief: as §1

[3] = compound: C1=CC(=CC=C1C2=NC3=C(N2)C=C(C=C3)C(=O)N)OC4=CC=C(C=C4)Cl
Method in brief: as §1

[4] = compound: C1=CC2=C(C=CC(=C2)/C=C\3/C(=O)NC(=NCC4=CC=CS4)S3)N=C1
Method in brief: as §1

[5] = compound: C1=CC2=NC=CN=C2C=C1/C=C/3\C(=O)NC(=O)S3
Method in brief: as §1

[6] = compound: C1=CC=C(C=C1)C2=NC(=C(N2)C3=CC=NC=C3)C4=CC(=C(C=C4)Cl)O
Method in brief: as §1

[7] = compound: C1=CC=C(C=C1)[C@H](COC2=CC3=C(C=C2)NC(=O)N3)NC(=O)C4=CC=CN(C4=O)CC5=CC(=C(C=C5)F)F
Method in brief: as §1

[8] = compound: C1=CC=C2C(=C1)C3=NNC4=CC=CC(=C43)C2=O
Method in brief: as §1

[9] = compound: C1CCN(C1)C(=O)NC2=CC=CC(=C2)NC3=NC=C(C(=N3)NCCC4=CN=CN4)Br
Method in brief: as §1

[10] = compound: C1CN(CCC1(CC2=CC=C(C=C2)Cl)N)C3=NC=NC4=C3C=CN4
Method in brief: as §1

[11] = compound: C1COCCN1CCN2C3=CC=CC=C3N=C2NC(=O)C4=CC(=CC=C4)[N+](=O)[O-] [IRAK-1-4 Inhibitor I]
Method in brief: as §1

[12] = compound: C=CC(=O)N1CCC[C@@H](n2nc(-c3ccc(Oc4ccccc4)cc3)c3c(N)ncnc32)C1 [ibrutinib]
Method in brief: as §1

[13] = compound: CC(=O)c1cnc2ccc(-c3cc(Cl)c(O)c(Cl)c3)nc2c1N[C@H]1CC[C@H](CN(C)C)CC1
Method in brief: as §1

[14] = compound: CC(C)(C)Cn1c(N)nc2ccc(-c3[nH]c(C(C)(C)C)nc3-c3ccc(F)cc3)nc21 [ralimetinib]
Method in brief: as §1

[15] = compound: CC(C)(O)CC(=O)NCCn1ccc2ncnc(Nc3ccc(Oc4cccc(C(F)(F)F)c4)c(Cl)c3)c21
Method in brief: as §1

[16] = compound: CC(C)C1=C2N=C(C=C(N2N=C1)NCC3=CC=CC=C3)NCCCCCCN
Method in brief: as §1

[17] = compound: CC1=C(C(CC(=O)N1)C2=CC=C(C=C2)C(F)(F)F)C(=O)NC3=C(C=C4C(=C3)C=NN4)F
Method in brief: as §1

[18] = compound: CC1=C(C2=C(C=C1)C(=O)C3=CC=CC=C3N2CCCN)C
Method in brief: as §1

[19] = compound: CC1=C(C=C(C=C1)NC(=O)C2=CC(=CC=C2)C(C)(C)C#N)NC3=CC4=C(C=C3)N=CN(C4=O)C
Method in brief: as §1

[20] = compound: CC1=C(C=C(C=C1)NC(=O)C2=CC(=CC=C2)N(C)C)NC(=O)C3=CC=C(C=C3)O
Method in brief: as §1

[21] = compound: CC1=C(SC2=C1C(=N[C@H](C3=NN=C(N32)C)CC(=O)N)C4=CC=C(C=C4)Cl)C
Method in brief: as §1

[22] = compound: CC1=C2C(=CC=C1)N=C(N(C2=O)C3=CC=CC=C3C)CN4C=NC5=C(N=CN=C54)N
Method in brief: as §1

[23] = compound: CC1=CC=C(C=C1)SC2=C3C=C(SC3=CN=C2)C(=O)N
Method in brief: as §1

[24] = compound: CCCS(=O)(=O)Nc1ccc(F)c(C(=O)c2c[nH]c3ncc(-c4ccc(Cl)cc4)cc23)c1F [vemurafenib]
Method in brief: as §1

[25] = compound: CCCS(=O)(=O)Nc1ccc(F)c(C(=O)c2c[nH]c3ncc(Cl)cc23)c1F
Method in brief: as §1

[26] = compound: CCN(CCCOc1ccc2c(Nc3cc(CC(=O)Nc4cccc(F)c4)[nH]n3)ncnc2c1)CCOP(=O)(O)O [barasertib]
Method in brief: as §1

[27] = compound: CC[C@@H]1C(=O)N(C)c2cnc(Nc3ccc(C(=O)NC4CCN(C)CC4)cc3OC)nc2N1C1CCCC1
Method in brief: as §1

[28] = compound: CC[C@@H]1C(=O)N(C)c2cnc(Nc3ccc(C(=O)N[C@H]4CC[C@H](N5CCN(CC6CC6)CC5)CC4)cc3OC)nc2N1C(C)C [volasertib]
Method in brief: as §1

[29] = compound: CCn1c(C(=O)N(C2CC2)C2CC2)cc2c3c(ncn3C)c(Nc3cc(C)n(C)n3)nc21
Method in brief: as §1

[30] = compound: CCn1cc(-c2ccnc3[nH]c(-c4cccc(CN(C)C)c4)cc23)c(-c2ccc(NC(=O)N(C)C)cc2)n1
Method in brief: as §1

[31] = compound: CN1CCC(CNc2ccc3ncc(-c4cccc(OC(F)(F)F)c4)n3n2)CC1
Method in brief: as §1

[32] = compound: CN1CCN(CCOc2cc(OC3CCOCC3)c3c(Nc4c(Cl)ccc5c4OCO5)ncnc3c2)CC1 [saracatinib]
Method in brief: as §1

[33] = compound: CN1CCN(c2nc(C3=C(c4c[nH]c5ccccc45)C(=O)NC3=O)c3ccccc3n2)CC1 [sotrastaurin]
Method in brief: as §1

[34] = compound: CN1CC[C@H](c2c(O)cc(O)c3c(=O)cc(-c4ccccc4Cl)oc23)[C@H](O)C1 [alvocidib]
Method in brief: as §1

[35] = compound: CN1CCc2c(c3ccccc3n2Cc2ccc(C(=O)NO)cc2)C1 [Tubastatin A]
Method in brief: as §1

[36] = compound: CNC(=O)C1=CC=CC=C1NC2=NC(=NC=C2Cl)NC3=C(C=C(C=C3)N4CCOCC4)OC
Method in brief: as §1

[37] = compound: CNC(=O)c1ccc(Nc2ncc(C(F)(F)F)c(NCc3nccnc3N(C)S(C)(=O)=O)n2)cc1 [defactinib]
Method in brief: as §1

[38] = compound: CNc1nc(-c2ccc3c(N)n[nH]c3c2)cc(N2C[C@@H](C(=O)NC3CCCCC3)CC[C@H]2C)n1
Method in brief: as §1

[39] = compound: COC(=O)N[C@@H](C)CNc1nccc(-c2cn(C(C)C)nc2-c2cc(Cl)cc(NS(C)(=O)=O)c2F)n1 [encorafenib]
Method in brief: as §1

[40] = compound: COC(=O)[C@H](CCSC)NC(=O)C1=C(C=C(C=C1)NC[C@H](CS)N)C2=CC=CC=C2
Method in brief: as §1

[41] = compound: COc1cc(Nc2ncc3c(n2)-c2ccc(Cl)cc2C(c2c(F)cccc2OC)=NC3)ccc1C(=O)O [alisertib]
Method in brief: as §1

[42] = compound: COc1cc2nc(-c3cc(F)ccc3O)nc(N[C@@H]3CNC[C@H]3C(C)(C)O)c2cc1OC
Method in brief: as §1

[43] = compound: COc1cc2ncnc(Nc3ccc(F)c(Cl)c3)c2cc1OCCCN1CCOCC1 [gefitinib]
Method in brief: as §1

[44] = compound: CS(=O)(=O)CCNCc1ccc(-c2ccc3ncnc(Nc4ccc(OCc5cccc(F)c5)c(Cl)c4)c3c2)o1 [lapatinib]
Method in brief: as §1

[45] = compound: CS(=O)(=O)N1CCN(Cc2cc3nc(-c4cccc5[nH]ncc45)nc(N4CCOCC4)c3s2)CC1 [pictilisib]
Method in brief: as §1

[46] = compound: C[C@@H](Oc1cc(-c2cnn(C3CCNCC3)c2)cnc1N)c1c(Cl)ccc(F)c1Cl [crizotinib]
Method in brief: as §1

[47] = compound: C[C@H](C1=CC=C(C=C1)C(=O)NC2=C3C=CNC3=NC=C2)N
Method in brief: as §1

[48] = compound: C[C@H](Nc1ncnc2nc[nH]c12)c1cc2cccc(Cl)c2c(=O)n1-c1ccccc1 [duvelisib]
Method in brief: as §1

[49] = compound: Cc1cc(Nc2cc(CN3CCOCC3)c3nc(C)c(Cc4ccc(Cl)cc4F)n3n2)n[nH]1 [gandotinib]
Method in brief: as §1

[50] = compound: Cc1cc(Nc2cc(N3CCN(C)CC3)nc(Sc3ccc(NC(=O)C4CC4)cc3)n2)n[nH]1 [tozasertib]
Method in brief: as §1

[51] = compound: Cc1ccc(-n2nc(C(C)(C)C)cc2NC(=O)Nc2ccc(OCCN3CCOCC3)c3ccccc23)cc1 [doramapimod]
Method in brief: as §1

[52] = compound: Cc1ccc(NC(=O)c2ccc(CN3CC[C@H](N(C)C)C3)c(C(F)(F)F)c2)cc1Nc1nccc(-c2cncnc2)n1 [bafetinib]
Method in brief: as §1

[53] = compound: Cc1cccc(CC(=O)N2CCc3c2ccc(-c2cn(C)c4ncnc(N)c24)c3F)n1
Method in brief: as §1

[54] = compound: Cc1cn(-c2cc(NC(=O)c3ccc(C)c(Nc4nccc(-c5cccnc5)n4)c3)cc(C(F)(F)F)c2)cn1 [nilotinib]
Method in brief: as §1

[55] = compound: Cc1nc(Nc2n[nH]c3c2CN(C(=O)N[C@H](CN(C)C)c2ccccc2)C3(C)C)c2sccc2n1
Method in brief: as §1

[56] = compound: Cc1nc(Nc2ncc(C(=O)Nc3c(C)cccc3Cl)s2)cc(N2CCN(CCO)CC2)n1 [dasatinib]
Method in brief: as §1

[57] = compound: Cc1ncc(-c2ccnc(Nc3ccc(S(C)(=O)=O)cc3)n2)n1C(C)C
Method in brief: as §1

[58] = compound: Cc1sc2c(c1C)C(c1ccc(Cl)cc1)=N[C@@H](CC(=O)OC(C)(C)C)c1nnc(C)n1-2
Method in brief: as §1

[59] = compound: Cn1cc(-c2ccc3c(c2)CCN3C(=O)Cc2cccc(C(F)(F)F)c2)c2c(N)ncnc21
Method in brief: as §1

[60] = compound: Cn1cc(CNCC2CCN(c3ncc(C(=O)NO)cn3)CC2)c2ccccc21 [quisinostat]
Method in brief: as §1

[61] = compound: Cn1cncc1[C@@](N)(c1ccc(Cl)cc1)c1ccc2c(c1)c(-c1cccc(Cl)c1)cc(=O)n2C [tipifarnib]
Method in brief: as §1

[62] = compound: NC(=O)Nc1cc(-c2cccc(F)c2)sc1C(=O)N[C@H]1CCCNC1
Method in brief: as §1

[63] = compound: NC(=O)c1cnc(N[C@@H]2CCCC[C@@H]2N)nc1Nc1cccc(-n2nccn2)c1
Method in brief: as §1

[64] = compound: NC1(c2ccc(-c3nc4ccn5c(=O)[nH]nc5c4cc3-c3ccccc3)cc2)CCC1
Method in brief: as §1

[65] = compound: NCC(=O)Nc1ccc(-n2nc(C(F)(F)F)cc2-c2ccc3c(ccc4ccccc43)c2)cc1
Method in brief: as §1

[66] = compound: O=C(CCCCCCC(=O)Nc1ccccc1)NO [vorinostat]
Method in brief: as §1

[67] = compound: O=C(O)c1ccc2c(c1)nc(Nc1cccc(Cl)c1)c1ccncc12 [silmitasertib]
Method in brief: as §1

[68] = compound: O=C1NC(=O)C(c2cnc3ccccn23)=C1c1cn2c3c(cc(F)cc13)CN(C(=O)N1CCCCC1)CC2
Method in brief: as §1

[69] = compound: c1ccc([C@@H]2C[C@H]2NC2CCNCC2)cc1
Method in brief: as §1

[70] = compound: c1cn2cc(-c3ccc4cn[nH]c4c3)nc(Nc3ccc(N4CCOCC4)cc3)c2n1 [entospletinib]
Method in brief: as §1

Measured: log2 fold change

SARS (UniProt P49591)
inactive: [1] 0.002 | [2] 0.055 | [3] 0.003 | [4] -0.015 | [5] -0.02 | [6] -0.012 | [7] -0.001 | [8] -0.013 | [9] -0.009 | [10] -0.005 | [11] -0.002 | [12] 0.035 | [13] 0.014 | [14] 0.003 | [15] 0 | [16] 0.006 | [17] -0.022 | [18] 0 | [19] -0.005 | [20] 0.002 | [21] 0.007 | [22] -0.01 | [23] 0.01 | [24] -0.01 | [25] -0.004 | [26] -0.024 | [27] -0.027 | [28] -0.027 | [29] -0.001 | [30] 0.093 | [31] -0.033 | [32] -0.006 | [33] -0.011 | [34] 0.029 | [35] -0.006 | [36] -0.009 | [37] -0.017 | [38] -0.025 | [39] 0.007 | [40] -0.039 | [41] 0.013 | [42] 0.001 | [43] -0.014 | [44] 0 | [45] -0.006 | [46] 0.026 | [47] 0.095 | [48] 0.01 | [49] -0.034 | [50] -0.016 | [51] -0.03 | [52] 0.062 | [53] -0.044 | [54] 0.01 | [55] -0.015 | [56] -0.032 | [57] 0.009 | [58] 0.009 | [59] 0.005 | [60] 0.07 | [61] 0.029 | [62] 0.003 | [63] -0.019 | [64] 0.015 | [65] -0.011 | [66] -0.079 | [67] -0.004 | [68] 0.03 | [69] 0.055 | [70] 0.017

SCML2 (UniProt Q9UQR0)
inactive: [7] -0.036 | [21] 0.062 | [22] -0.055 | [58] -0.032 | [69] 0.02
